These are yes or no findings as the source states them, for the method shown. In cells and extracts the contact can be indirect. Here binding means that the protein was enriched with, or labelled near, the bait; the list need not be complete. Where a sequence is shown, tags or fusion partners need not be part of it.
Target: T1, FLAG-HA-SMYD3 (SET and MYND domain containing protein 3) (human) (UniProt Q9H7B4)
T1 sequence: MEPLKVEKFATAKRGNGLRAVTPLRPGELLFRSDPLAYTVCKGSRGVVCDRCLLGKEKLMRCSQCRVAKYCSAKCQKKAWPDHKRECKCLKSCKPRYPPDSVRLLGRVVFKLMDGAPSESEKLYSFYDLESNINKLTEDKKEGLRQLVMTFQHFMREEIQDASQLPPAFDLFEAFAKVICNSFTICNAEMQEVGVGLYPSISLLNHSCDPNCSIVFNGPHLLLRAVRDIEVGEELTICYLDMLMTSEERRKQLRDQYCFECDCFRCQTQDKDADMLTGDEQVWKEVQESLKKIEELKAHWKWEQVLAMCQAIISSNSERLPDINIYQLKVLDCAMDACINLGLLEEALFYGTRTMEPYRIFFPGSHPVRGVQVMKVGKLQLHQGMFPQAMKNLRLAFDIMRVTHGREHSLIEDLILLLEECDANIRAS
Assay: affinity purification with mass spectrometry; FLAG-HA-SMYD3 stably expressed in HCT116; nuclear extracts; sequential immunoprecipitation with anti-FLAG M2 and anti-HA antibodies in 20 mM Tris-HCl pH 7.3, 300 mM KCl, 0.2 mM EDTA, 20% glycerol, 0.1% Nonidet P-40; major bands of a 4–20% SDS-PAGE gel analysed by LC-MS/MS

Amino acid sequences for entries named in this document (tags omitted).
UniProt P42694: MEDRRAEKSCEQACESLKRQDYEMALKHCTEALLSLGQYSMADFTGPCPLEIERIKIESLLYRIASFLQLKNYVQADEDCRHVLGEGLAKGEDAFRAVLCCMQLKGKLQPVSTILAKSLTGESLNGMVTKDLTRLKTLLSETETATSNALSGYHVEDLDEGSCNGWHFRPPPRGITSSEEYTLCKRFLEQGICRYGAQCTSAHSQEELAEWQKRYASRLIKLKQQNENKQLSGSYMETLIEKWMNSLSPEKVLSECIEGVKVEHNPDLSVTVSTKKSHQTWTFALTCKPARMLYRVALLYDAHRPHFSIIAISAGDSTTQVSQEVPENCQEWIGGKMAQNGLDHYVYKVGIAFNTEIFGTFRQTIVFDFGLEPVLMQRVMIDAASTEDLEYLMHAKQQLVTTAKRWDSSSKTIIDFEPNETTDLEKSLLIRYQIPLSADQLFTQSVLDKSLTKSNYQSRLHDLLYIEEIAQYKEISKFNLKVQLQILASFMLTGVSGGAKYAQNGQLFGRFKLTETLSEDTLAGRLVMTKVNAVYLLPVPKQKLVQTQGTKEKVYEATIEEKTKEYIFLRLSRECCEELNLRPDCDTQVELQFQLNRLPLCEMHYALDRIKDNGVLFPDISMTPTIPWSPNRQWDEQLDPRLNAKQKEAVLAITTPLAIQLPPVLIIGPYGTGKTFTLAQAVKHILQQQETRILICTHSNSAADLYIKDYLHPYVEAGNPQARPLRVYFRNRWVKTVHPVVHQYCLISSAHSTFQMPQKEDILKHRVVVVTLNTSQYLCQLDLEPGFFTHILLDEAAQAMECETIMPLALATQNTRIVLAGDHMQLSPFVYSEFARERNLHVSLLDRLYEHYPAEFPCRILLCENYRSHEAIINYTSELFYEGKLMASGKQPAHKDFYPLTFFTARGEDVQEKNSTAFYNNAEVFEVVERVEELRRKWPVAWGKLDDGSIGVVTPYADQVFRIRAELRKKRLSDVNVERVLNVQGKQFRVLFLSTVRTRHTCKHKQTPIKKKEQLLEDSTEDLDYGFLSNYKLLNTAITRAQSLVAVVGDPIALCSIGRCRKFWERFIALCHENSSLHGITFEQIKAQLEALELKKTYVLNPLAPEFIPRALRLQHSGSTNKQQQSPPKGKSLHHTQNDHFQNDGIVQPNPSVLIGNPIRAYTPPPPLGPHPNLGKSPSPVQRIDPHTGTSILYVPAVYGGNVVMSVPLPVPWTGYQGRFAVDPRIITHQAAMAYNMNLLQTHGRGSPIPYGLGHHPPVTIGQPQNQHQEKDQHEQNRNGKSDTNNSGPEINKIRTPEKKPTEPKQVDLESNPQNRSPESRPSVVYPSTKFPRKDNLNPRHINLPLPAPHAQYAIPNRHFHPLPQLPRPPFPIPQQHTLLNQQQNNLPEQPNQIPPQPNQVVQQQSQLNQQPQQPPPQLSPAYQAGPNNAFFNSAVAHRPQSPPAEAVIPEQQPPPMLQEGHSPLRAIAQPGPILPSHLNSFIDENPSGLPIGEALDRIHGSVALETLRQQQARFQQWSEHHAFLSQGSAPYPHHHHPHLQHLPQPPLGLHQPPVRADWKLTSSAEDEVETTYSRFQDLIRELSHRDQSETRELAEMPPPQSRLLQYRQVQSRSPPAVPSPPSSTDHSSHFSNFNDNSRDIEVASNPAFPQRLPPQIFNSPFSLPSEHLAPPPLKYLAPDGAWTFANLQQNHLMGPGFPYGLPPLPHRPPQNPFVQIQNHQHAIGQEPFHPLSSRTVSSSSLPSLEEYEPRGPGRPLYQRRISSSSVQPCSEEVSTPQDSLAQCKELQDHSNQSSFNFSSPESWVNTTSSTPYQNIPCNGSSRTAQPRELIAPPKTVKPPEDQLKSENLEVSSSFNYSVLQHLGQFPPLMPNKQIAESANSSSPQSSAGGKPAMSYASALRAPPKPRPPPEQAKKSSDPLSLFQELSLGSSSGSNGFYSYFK

binding | Substance
binds | HSP90A (from UniProt P07900 1-732)
binds | RNA helicase HELZ (from UniProt P42694 1-1942)

Reference: publication PMC4605318
